From patent publication US20160369008A1 come the findings set out here.

Protein sequences, listed by entry. Tags and fused reporters are not part of them. Lines headed by an entry give the natural chain unless they say otherwise; changes in a name come on top.
UniProt P04004: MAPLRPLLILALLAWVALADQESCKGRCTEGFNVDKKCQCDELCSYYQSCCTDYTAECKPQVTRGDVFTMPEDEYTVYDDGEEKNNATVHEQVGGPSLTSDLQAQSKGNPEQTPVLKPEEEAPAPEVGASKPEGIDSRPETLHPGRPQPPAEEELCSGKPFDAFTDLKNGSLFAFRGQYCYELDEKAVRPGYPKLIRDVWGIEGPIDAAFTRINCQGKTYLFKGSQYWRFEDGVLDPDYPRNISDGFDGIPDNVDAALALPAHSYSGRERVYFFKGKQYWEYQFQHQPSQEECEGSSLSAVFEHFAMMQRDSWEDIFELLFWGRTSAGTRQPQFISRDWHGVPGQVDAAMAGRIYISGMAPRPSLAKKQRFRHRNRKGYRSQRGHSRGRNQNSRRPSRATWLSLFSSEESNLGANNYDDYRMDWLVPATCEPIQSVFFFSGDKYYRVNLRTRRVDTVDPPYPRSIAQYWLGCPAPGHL

The target in assay [1] is T1, active human PAI-1 in complex with vitronectin (human) (UniProt P05121+P04004). Put plainly: ELISA, vitronectin-coated plate with active human PAI-1 added.
For assay [2], the target named is T1, active human PAI-1 in complex with vitronectin (human). Description: ELISA, VTN-PAI-1 complex on the plate.
The target is the same in assay [3]. Put plainly: ELISA of Example 6, told again in Example 11.

No constants are given. Whether binding was seen depends on the method and setting. Some results given as binding are weak or reduced against the parent protein; the word gives no strength.

B1: HOT-1 (chimeric antibody) (antibody, V domains shown)
VH: EVQLVESGGGVVRPGGSLRLSCAASGFTFDDHGMTWVRQAPGKGLEWVSGINWNGARTVYADSVKGRFTISRDNAKNSLYLHLISLRAEDTALYHCARDRGLGLFDYWGQGTLVTVSS
VL: DIQMTQSPSTLSASVGDRVTITCRASQSISSWLAWYQQKPGKVPKILIYKASRLESGVPSRISGSGSGTEFTLTISSLQPDDFATYYCQQYNGYSYTFGQGTKLEIKR
For B1, the binding result in assay [1] is given as “binds”.

B2: fully human HOT-1 (antibody, human IgG1, kappa, V domains shown)
VH: EVQLVESGGGVVRPGGSLRLSCAASGFTFDDHGMTWVRQAPGKGLEWVSGINWNGARTVYADSVKGRFTISRDNAKNSLYLHLISLRAEDTALYHCARDRGLGLFDYWGQGTLVTVSS
VL: DIQMTQSPSTLSASVGDRVTITCRASQSISSWLAWYQQKPGKVPKILIYKASRLESGVPSRISGSGSGTEFTLTISSLQPDDFATYYCQQYNGYSYTFGQGTKLEIKR
For B2, the binding result in assay [2] and in assay [3] was “binds” throughout.
